From PubChem BioAssay AID1487 (National Center for Advancing Translational Sciences (NCATS), 2009) come the findings set out here.

This is one part of the list. The main result of the screen is listed elsewhere. These columns were measured beside it and carry no call. The list favours compounds with an active or inconclusive main result. The note in brackets gives the kind of curve behind each potency; many fits are weak.

The nature of this assay: qHTS Assay for Modulators of Lamin A Splicing. Conditions: HeLa LMNA splicing GFP/RFP minigene ratio, 48 h. The method in brief: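 S3 HeLa cells stably expressing lamin A-EGFP splicing minigene plus DsRed2, 600 cells/well, 48 h compound exposure at 37C. Laser-scanning cytometry; analysed as GFP (500-530 nm)/RFP (575-640 nm) total intensity ratio; 0.5% DMSO vehicle.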
The mark [1] stands for this setting: measured here: GFP splicing reporter channel.
The mark [2] stands for this setting: measured here: RFP viability control channel.

For the compound `N#Cc1cc(N)c(Nc2ccccc2)cc1C#N`, the AC50 was 35.5 µM [rising, single point] under setting [1] and 35.5 µM [rising, single point] under setting [2].

As to `CC(C)(C)CC(C)(C)c1ccc(OCCO)cc1`, the AC50 under setting [1] was 0.141 µM [rising, full curve, poor fit].

`COCCn1c(=O)[nH]c(=O)c2cc(C(=O)c3cc(Cl)ccc3O)cnc21`: the AC50 was 0.0398 µM [rising, full curve, poor fit] under setting [1] and 0.0447 µM [rising, full curve, poor fit] under setting [2].

Turning to `Cc1ccc(C(=O)Nc2cc(Cl)ccc2Oc2ccccc2)cc1[N+](=O)[O-]`, under setting [2], the AC50 is 0.0355 µM [rising, full curve, poor fit].

Consider `CCc1ccc(NC(=O)CCCc2nc(-c3ccco3)no2)cc1`, for which the AC50 under setting [2] was 7.08 µM [falling, partial curve, poor fit].

For the compound `O=C(Nc1ccc2nc(SCC(=O)N3CCCC3)sc2c1)c1ccccc1F`, the AC50 is 7.08 µM [falling, partial curve, poor fit] under setting [1] and 1.41 µM [falling, partial curve] under setting [2].

Take `O=C(Cc1cccs1)Nc1nc2c(s1)CCCC2`: the concentration at half-maximal activity (AC50) under setting [2] is 28.2 µM [rising, single point].

As to `Cc1cccc(C(=O)Nc2ccccc2SCC2CSc3nc4ccccc4c(=O)n32)c1` (centres undefined), the concentration at half-maximal activity (AC50) under setting [2] is 14.1 µM [rising, partial curve].

On to `Cc1ccc2oc(Nc3nc(-c4ccccc4)cc(=O)[nH]3)nc2c1`, for which the AC50 under setting [1] is 14.1 µM [rising, single point].

In the case of `CCOC(=O)c1cccc(N)c1`, the AC50 is, setting by setting: under setting [1], 35.5 µM [falling, single point]; under setting [2], 1.12 µM [rising, full curve, poor fit].

Take `CCC(=O)Oc1ccc(NC(=O)CSCc2ccccc2)cc1`: under setting [2], the AC50 was 0.0794 µM [rising, full curve, poor fit].

For the compound `C#CCNC(=O)c1cccn1-c1ncc(C(F)(F)F)cc1Cl`, the AC50 under setting [1] is 0.01 µM [falling, full curve, poor fit].

With `Cc1ccc(NC(=O)CNC(=O)OCc2ccccc2)cc1C`, the concentration at half-maximal activity (AC50) under setting [1] was 0.00316 µM [rising, full curve, poor fit].

As for `COC(=O)c1ccc(-c2ncc(-c3cccc4ccccc34)o2)cc1`, the AC50 under setting [1] was 0.0562 µM [falling, full curve, poor fit].

With `COc1ccc(Cc2nnc(N/N=C/c3ccccc3O)[nH]c2=O)cc1OC`, the AC50 under setting [2] is 6.31 µM [rising, full curve].

Take `CCn1c(SCc2ccccc2F)nc(=O)c2c(C(=O)OC)cc(C3CC3)nc21`: the AC50 reads like this: under setting [1], 0.447 µM [rising, partial curve, poor fit]; under setting [2], 0.398 µM [rising, full curve, poor fit].

With `Cc1ccc2c(C)c(C(=O)Nc3c(C)n(C)n(-c4ccccc4)c3=O)oc2c1C`, the AC50 under setting [1] was 3.98 µM [rising, partial curve] and the AC50 under setting [2] was 10 µM [rising, partial curve].

In the case of `O=C(NCc1ccccc1Cl)C1CCN(S(=O)(=O)N2CCCCCC2)CC1`, the AC50 reads like this: under setting [1], 35.5 µM [rising, single point]; under setting [2], 35.5 µM [rising, single point].

Regarding `Cc1nn(CC(N)=O)c(=O)c2ccccc12`, the AC50 under setting [2] is 14.1 µM [rising, single point].

Regarding `COc1ccc(-c2c(S(=O)(=O)c3ccccc3)cnn2-c2ccccc2)cc1`, the AC50 under setting [2] is 31.6 µM [rising, single point].

For the compound `Oc1cccc(C(Nc2nccs2)c2ccc3cccnc3c2O)c1` (centres undefined), the AC50 is, setting by setting: under setting [1], 25.1 µM [falling, single point]; under setting [2], 31.6 µM [falling, single point].

For `O=C(Nc1ccc(F)cc1)c1ccccc1F`, under setting [2], the AC50 was 15.8 µM [rising, single point].

For `CCOC(=O)c1cnc2c(OC)cccc2c1Nc1ccc2c(c1)OCCO2`, the AC50 under setting [2] is 20 µM [rising, single point].

Regarding `COCCn1c(SCC(=O)Nc2nnc(C)s2)nnc1-c1cc2ccccc2cc1O`, the half-maximal activity concentration (AC50) under setting [2] is 0.02 µM [falling, full curve, poor fit].

`Cc1cccc(C)c1NC(=O)C(c1ccccc1)N1CCN(C(=O)c2ccco2)CC1` (centres undefined): the AC50 under setting [2] was 0.0282 µM [falling, full curve].

In the case of `CCOC(=O)c1c(C)sc2c1N(C(=O)CN(CC)CC)c1cc(Cl)ccc1S2`, the AC50 under setting [1] was 35.5 µM [rising, single point].

Consider `CCOC(=O)c1c(NC(=O)CN(CC)CC)sc2c1CCC2`, for which the AC50 under setting [2] is 6.31 µM [falling, single point].

In the case of `O=[N+]([O-])c1ccc(/C=N/N=C/c2ccc([N+](=O)[O-])o2)o1`, the AC50 by setting is: under setting [1], 5.62 µM [falling, partial curve]; under setting [2], 0.0112 µM [falling, full curve, poor fit].

Take `Cc1cccc(N(C(=O)CNC(=O)c2ccco2)C(C(=O)NC2CCCC2)c2cccnc2)c1` (centres undefined): under setting [2], the AC50 was 0.112 µM [falling, single point].

With `COc1cc2ccnc(Cc3cccc(OC)c3OC)c2cc1OC`, under setting [1], the AC50 is 0.224 µM [falling, full curve, poor fit].

Take `Cc1cc(C)c2nc(NC(=O)c3ccc(OCC4CCCO4)cc3)sc2c1` (centres undefined): the AC50 under setting [1] was 0.0224 µM [rising, full curve, poor fit].

As to `Cc1ccc(NC(=S)NNc2ncc(C(F)(F)F)cc2Cl)cc1`, the AC50 under setting [2] was 22.4 µM [rising, partial curve].

In the case of `C=CCn1c(CCc2ccc(OC(C)C)cc2)n[nH]c1=S`, the AC50 is, setting by setting: under setting [1], 3.98 µM [falling, full curve]; under setting [2], 2.82 µM [falling, full curve].

For the compound `O=C1CC(N2CCN(S(=O)(=O)c3cccc(C(F)(F)F)c3)CC2)C(=O)N1Cc1ccccc1` (centres undefined), the AC50 under setting [2] is 12.6 µM [rising, single point].

Consider `CCCNCC(O)COc1ccccc1C(=O)CCc1ccccc1` (centres undefined), for which the AC50 is, setting by setting: under setting [1], 0.002 µM [falling, full curve, poor fit]; under setting [2], 17.8 µM [rising, single point].

`Cc1ccc(CCNC(=O)c2ccc(CSCc3ccccc3C)o2)cc1`: the AC50 under setting [1] was 0.316 µM [rising, full curve, poor fit].

With `O=Nc1c(O)n(Cc2ccc(Cl)c(Cl)c2)c2ccccc12`, the AC50 is, setting by setting: under setting [1], 25.1 µM [falling, single point]; under setting [2], 35.5 µM [falling, single point].
